Test results published in the supplement of paper PMC4604168 (melanoma cell lines).
The other results are listed elsewhere or left out. Many values rest on one well or one pass, so single values are uncertain.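 The apoptosis fraction was the count of cleaved-PARP antibody-stained nuclei relative to all DNA-stained nuclei, imaged in 1,536-well plates. Screening doses were set so most cells survived, and baseline and induced cleaved-PARP levels vary greatly across cell lines.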

Columns and labels:
Test in all cases: cleaved PARP positive nuclei fraction relative to DMSO control; melanoma cells; higher = more apoptosis
Conditions in all cases: library dose: low library concentration; 72 h
MZ2-MEL = test system: MZ2-MEL
MeWo = test system: MeWo
RPMI7951 = test system: RPMI7951
RVH-421 = test system: RVH-421
SkMel28 = test system: SkMel28
SkMel2 = test system: SkMel2
SkMel30 = test system: SkMel30
SkMel5 = test system: SkMel5
UACC257 = test system: UACC257
UACC62 = test system: UACC62
WM115 = test system: WM115
WM1716 = test system: WM1716
WM1745 = test system: WM1745
WM3526 = test system: WM3526
WM3619 = test system: WM3619
WM451Lu = test system: WM451Lu

Row | SMILES | cleaved PARP positive nuclei fraction (MZ2-MEL) [%] | cleaved PARP positive nuclei fraction (MeWo) [%] | cleaved PARP positive nuclei fraction (RPMI7951) [%] | cleaved PARP positive nuclei fraction (RVH-421) [%] | cleaved PARP positive nuclei fraction (SkMel28) [%] | cleaved PARP positive nuclei fraction (SkMel2) [%] | cleaved PARP positive nuclei fraction (SkMel30) [%] | cleaved PARP positive nuclei fraction (SkMel5) [%] | cleaved PARP positive nuclei fraction (UACC257) [%] | cleaved PARP positive nuclei fraction (UACC62) [%] | cleaved PARP positive nuclei fraction (WM115) [%] | cleaved PARP positive nuclei fraction (WM1716) [%] | cleaved PARP positive nuclei fraction (WM1745) [%] | cleaved PARP positive nuclei fraction (WM3526) [%] | cleaved PARP positive nuclei fraction (WM3619) [%] | cleaved PARP positive nuclei fraction (WM451Lu) [%]
1 | CCCS(=O)(=O)Nc1ccc(F)c(C(=O)c2c[nH]c3ncc(Cl)cc23)c1F + COc1ccc(-c2ccc3c(N4CCOCC4)nc(N4C[C@@H](C)O[C@@H](C)C4)nc3n2)cc1CO [KU0063794] (first compound 0.08 µM, partner dose 0.02 µM) | 472 | 62 | 123 | 179 | 118 | 426 | 55.6 | 33.2 | 137 | 176 | 58.9 | 21 | 147 | 48.3 | 105 | 48
2 | CS(=O)(=O)CCNCc1ccc(-c2ccc3ncnc(Nc4ccc(OCc5cccc(F)c5)c(Cl)c4)c3c2)o1 [lapatinib] + Oc1cc(-c2nc(-c3ccccc3)[nH]c2-c2ccncc2)ccc1Cl [L779450] (first compound 0.8 µM, partner dose 0.2 µM) | 166 | 20.6 | 62.6 | 60.3 | 134 | 38.6 | 39.5 | 71.7 | 106 | 97.6 | 124 | 65 | 95.6 | 47.3 | 123 | 128
3 | CN1CCN(c2ccc3nc(-c4c(N)c5c(F)cccc5[nH]c4=O)[nH]c3c2)CC1 [Dovitinib] + CCN(CC)CCCCNc1ncc2cc(-c3cc(OC)cc(OC)c3)c(NC(=O)NC(C)(C)C)nc2n1 [PD173074] (first compound 0.1 µM, partner dose 0.1 µM) | 122 | 583 | 53.8 | 222 | 81.5 | 121 | 38.5 | 69.5 | 96.1 | 20.9 | 86.7 | 85 | 93.1 | 79.7 | 77.5 | 236
4 | CS(=O)(=O)CCNCc1ccc(-c2ccc3ncnc(Nc4ccc(OCc5cccc(F)c5)c(Cl)c4)c3c2)o1 [lapatinib] + c1cc(-c2cnn3cc(-c4ccc(OCCN5CCCCC5)cc4)cnc23)ccn1 [Dorsomorphin] (first compound 0.8 µM, partner dose 0.4 µM) | 116 | 128 | 83.2 | 25.1 | 28.3 | 110 | 77.4 | 97.8 | 207 | 132 | 65.7 | 88.1 | 110 | 71.4 | 84.9 | 59.4
5 | Cn1c(=O)n(-c2ccc(C(C)(C)C#N)cc2)c2c3cc(-c4cnc5ccccc5c4)ccc3ncc21 + Cn1cc(/C=C2\C(=O)Nc3cccnc32)c2ccccc21 [GW441756] (first compound 0.004 µM, partner dose 0.4 µM) | 108 | 59 | 36.3 | 243 | 106 | 15.9 | 21.6 | 80.8 | 95 | 148 | 32.8 | 77.6 | 69 | 34.7 | 66.7 | 60.9
6 | CN1CCN(c2ccc3nc(-c4c(N)c5c(F)cccc5[nH]c4=O)[nH]c3c2)CC1 [Dovitinib] + NCC(=O)Nc1ccc(-n2nc(C(F)(F)F)cc2-c2ccc3c(ccc4ccccc43)c2)cc1 [OSU03012] (first compound 0.1 µM, partner dose 1 µM) | 70.3 | 122 | 182 | 40.8 | 106 | 61.7 | 117 | 74.7 | 135 | 156 | 96.6 | 135 | 105 | 311 | 175 | 80.6
7 | Nc1ncn([C@H]2C[C@H](O)[C@@H](CO)O2)c(=O)n1 [decitabine] + O=S(=O)(c1ccccc1)N(CC(F)(F)F)c1ccc(C(O)(C(F)(F)F)C(F)(F)F)cc1 [T0901317] (first compound 0.1 µM, partner dose 1.4 µM) | 57.8 | 40.8 | 175 | 47 | 90.2 | 136 | 31.2 | 191 | 31.7 | 90.2 | 109 | 127 | 104 | 84 | 91.3 | 141
8 | Nc1ncn([C@H]2C[C@H](O)[C@@H](CO)O2)c(=O)n1 [decitabine] + COC(=O)c1sccc1S(=O)(=O)Nc1ccc(Nc2ccccc2)cc1OC [GSK0660] (first compound 0.1 µM, partner dose 1 µM) | 86.9 | 80.5 | 159 | 106 | 109 | 82.2 | 83.6 | 71 | 95.5 | 157 | 210 | 158 | 91.2 | 80 | 112 | 74.6
9 | CCCS(=O)(=O)Nc1ccc(F)c(C(=O)c2c[nH]c3ncc(Cl)cc23)c1F + CCN(CC)CCCCNc1ncc2cc(-c3cc(OC)cc(OC)c3)c(NC(=O)NC(C)(C)C)nc2n1 [PD173074] (first compound 0.08 µM, partner dose 0.1 µM) | 61.6 | 67.4 | 56 | 17.1 | 101 | 64.5 | 257 | 125 | 170 | 280 | 117 | 165 | 89.6 | 89.9 | 80.8 | 39.1
